Measured values reported in patent publication US6927208B1 (Debiopharm S.A., priority 1998, dated 2005).

Test: general procedure: solution-phase peptide synthesis; isobutylchloroformate/N-methylmorpholine (coupling); TFFH/collidine (cyclisation)

Substance	step yield (late stage modification step)	step yield (coupling step)
Boc-Val-MeLeu-Ala-(D)Ala-MeLeu-MeLeu-MeValMeBmt(OAc)-Abu-Sar-OMe	98%	–
Boc-Val-MeLeu-Ala-(D)Ala-MeLeu-MeLeu-MeVal-MeBmt(OAc)-Abu-Sar-EtVal-OtBu	–	62%
Boc-Val-MeLeu-Ala-(D)Ala-MeLeu-MeLeu-MeValMeBmt(OAc)-Abu-Sar-OH	95%	–
